Measurements: PMC9772228, “Structure of a RecT/Redβ family recombinase in complex with a duplex intermediate of DNA annealing”
Where a chain is given by its changes, count along the chain named. For part of these data: The comparison behind a weaker result is the experiment's own reference, which may not be listed here. Tags and fusion partners may be left off the protein sequences shown. For part of these data: Construct, isoform or probe ends are uncertain for at least one entry. For part of these data: At least one verdict was read from the data and is not stated in words by the source.

Experiments:
Experiment in all cases: EMSA
Settings in all cases: EMSA: PBS pH 7.4 (or KH2PO4/10 mM MgCl2 pH 6.0), 3.6 or 5 uM protein, 25 uM nt DNA, 37 C 15 min per strand, 0.8% agarose 1x TBE, recombinant protein, residues 1-271, protein details: N-terminal 6His vector tag (20 aa) retained
[1] = biological target: T1, LiRecT I126A (Listeria innocua CLIP 11262) (UniProt Q92FL9)
T1 sequence (looked up): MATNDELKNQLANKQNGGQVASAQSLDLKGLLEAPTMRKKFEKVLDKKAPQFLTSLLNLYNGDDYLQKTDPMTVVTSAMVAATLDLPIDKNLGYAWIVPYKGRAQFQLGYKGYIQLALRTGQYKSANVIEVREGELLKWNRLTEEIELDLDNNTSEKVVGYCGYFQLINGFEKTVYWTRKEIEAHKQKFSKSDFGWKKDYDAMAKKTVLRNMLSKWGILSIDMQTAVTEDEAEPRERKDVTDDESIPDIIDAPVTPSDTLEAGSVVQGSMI

[2] = biological target: T2, LiRecT I218E (text: I128E) (Listeria innocua CLIP 11262) (UniProt Q92FL9)
T2 sequence (looked up): T1 sequence (looked up) with A126I, I218E

[3] = biological target: T3, LiRecT K111A (Listeria innocua CLIP 11262) (UniProt Q92FL9)
T3 sequence (looked up): T1 sequence (looked up) with K111A, A126I

[4] = biological target: T4, LiRecT N211A (Listeria innocua CLIP 11262) (UniProt Q92FL9)
T4 sequence (looked up): T1 sequence (looked up) with A126I, N211A

[5] = biological target: T5, LiRecT R210A (Listeria innocua CLIP 11262) (UniProt Q92FL9)
T5 sequence (looked up): T1 sequence (looked up) with A126I, R210A

[6] = biological target: T6, LiRecT W216A (Listeria innocua CLIP 11262) (UniProt Q92FL9)
T6 sequence (looked up): T1 sequence (looked up) with A126I, W216A

[7] = biological target: T7, LiRecT W96A (Listeria innocua CLIP 11262) (UniProt Q92FL9)
T7 sequence (looked up): T1 sequence (looked up) with W96A, A126I

[8] = biological target: T8, LiRecT Y110A (Listeria innocua CLIP 11262) (UniProt Q92FL9)
T8 sequence (looked up): T1 sequence (looked up) with Y110A, A126I

[9] = label: 5'-Cy5, single-stranded DNA
[10] = label: 5'-Cy3, single-stranded DNA

GCGGATGGCTTAGAGCAGAATCGCCCTGCATAGCTCGATTTTTGCGGATG / CCATCCGCAAAAATCGAGCTATGCAGGGCGATTCTGCTCTAAGCCATCCG [50-mer duplex intermediate (sequential addition)]
binding result ([1]; label: 5'-Cy3,5'-Cy5): binds
binding result ([2]; small amount of aggregates in well, label: 5'-Cy3,5'-Cy5): binds more weakly
binding result ([3]; label: 5'-Cy3,5'-Cy5): binds more weakly
binding result ([4]; label: 5'-Cy3,5'-Cy5): binds
binding result ([5]; label: 5'-Cy3,5'-Cy5): binds
binding result ([6]; label: 5'-Cy3,5'-Cy5): binds
binding result ([7]; label: 5'-Cy3,5'-Cy5): binds
binding result ([8]; label: 5'-Cy3,5'-Cy5): binds

CCATCCGCAAAAATCGAGCTATGCAGGGCGATTCTGCTCTAAGCCATCCG [Cy5-50mer]
binding result [1, 9]: binds
binding result ([2]; disrupted almost completely, label: 5'-Cy5, single-stranded DNA): binds more weakly
binding result [3, 9]: binds more weakly
binding result [4, 9]: binds
binding result [5, 9]: binds
binding result [6, 9]: binds
binding result [7, 9]: binds
binding result [8, 9]: binds

GCGGATGGCTTAGAGCAGAATCGCCCTGCATAGCTCGATTTTTGCGGATG [Cy3-50mer]
binding result [1, 10]: binds
binding result ([2]; disrupted almost completely, label: 5'-Cy3, single-stranded DNA): binds more weakly
binding result [3, 10]: binds more weakly
binding result [4, 10]: binds
binding result [5, 10]: binds
binding result [6, 10]: binds
binding result [7, 10]: binds
binding result [8, 10]: binds
